Data published in patent US20250136687A1.

B1: 1-22.6-1-H2a-L2a humanized antibody (antibody, human IgG1, kappa, V domains shown)
VH: EVQLVQSGSELKKPGASVKVSCKTSGYTFTSYGMSWVRQAPGQGLEWMGWINTYSGVPTYAQDFKGRFVFSLDTSVSTAYLQISSLKAEDTAVYYCARLKNNPFVWGQGTTVTVSS
VL: DIVMTQSPDSLAVSLGERATINCRSSQLILHSSGNTYLEWYQQKPGQSPKLLIYKVSNRFSGVPDRFSGSGSGTDFTLTISSLQAEDVAVYYCFQGSHFPWTFGGGTKVEIKR
B2: 5-7.13-H1a-L2 humanized antibody (antibody, human IgG1, kappa, V domains shown)
VH: EVQLVQSGAEVKKPGASVKVSCKASGYTFTSYWVHWVRQAPGQRLEWMGNINPSDGVTNYNEKFKSRVTITVDKSASTAYMELSSLRSEDTAVYYCTRDAYGQYYFDNWGQGTTVTVSS
VL: DIVMTQTPLSLPVTPGEPASISCKSSQSLLNSRTRKNYLAWYLQKPGQSPQLLIYWASVRDSGVPDRFSGSGSGTDFTLKISRVEAEDVGVYYCIQSYYLRTFGGGTKVEIKR
B3: 5-40.21-H3-L1 humanized antibody (antibody, human IgG1, kappa, V domains shown)
VH: EVQLVQSGAEVKKPGASVKVSCKASGYTFTSYWMHWVRQAPGQGLEWMGNTYPGSGSTNYDEKFKSRVTITVDSSASTAYMELSSLRSEDTAVYYCTRDRYGVYYFDYWGQGTTVTVSS
VL: DIVMTQSPDSLAVSLGERATINCKSSQSLLNSRTRKNYLAWYQQKPGQSPKLLIYWASTRESGVPDRFSGSGSGTDFTLTISSLQAEDVAVYYCTQSYNLRTFGGGTKVEIKR
B4: 6-35.22-H1-L1 humanized antibody (antibody, human IgG1, kappa, V domains shown)
VH: EVQLVESGGGVVQPGRSLRLSCAASGFTFTDYYMSWVRQAPGKGLEWVAMSRNKAKGHTIEYSSSVKGRFTISRDNSKNTLYLQMNSLRAEDTAVYYCARDTYESYDGYFDVWGQGTTVTVSS
VL: DIVMTQSPDSLAVSLGERATINCKSSQSLFNSRSRKNYLAWYQQKPGQTPKLLIYWASIRESGVPDRFSGSGSGTDFTLTISSLQAEDVAVYYCKQSYYLYTFGQGTKLEIKR
B5: 6-44.5-H1-L2 humanized antibody (antibody, human IgG1, kappa, V domains shown)
VH: EVQLVQSGAEVKKPGSSVKVSCKASGHTFSSHIMHWVRQAPGQGLEWMGYINPNNDRTEYSEKFKGRVTITADKSTSTAYMELSSLRSEDTAVYYCAGEAYYSNSLYAMDYWGQGTTVTVSS
VL: DIVMTQSPDSLAVSLGERATINCKSSQSLFNSRTRKNYLAWYQQKPGQSPKLLIYWASTRESGVPDRFSGSGSGTDFTLTISSLQAEDVAVYYCKQSYYLRTFGGGTKVEIKR
B6: 7-35.6-H2-L3 humanized antibody (antibody, human IgG1, lambda, V domains shown)
VH: EVQLVESGGGLVQPGGSLKLSCAASGFTFNTYAMNWVRQASGKGLEWVGRIRSKINNYATYYGDSVKDRFTISRDDSKNTFYLQMNSLKTEDTAVYYCVIHENYGSISWFAYWGQGTLVTVSS
VL: ETVVTQEPSLTVSPGGTVTLTCRSSTGAVTTSNYANWVQQKPGQAFTGLIGGTNNRAPWTPARFSGSLLGGKAALTLSGVQPEDEAEYYCALWYSNHWVFGGGTKLTVLG
B7: 8-18.1-H1-L2 humanized antibody (antibody, human IgG1, kappa, V domains shown)
VH: EVQLVQSGAEVKKPGASVKVSCKASGYTFTMNTMHWVRQAPGQRLEWMGYINPYSGYTKYNQIFKDRVTITADKSASTAYMELSSLRSEDTAVYYCLRGGEGVWGQGTTVTVSS
VL: DVVMTQSPLSLPVTLGQPASISCKSSQSLLDSDGKTYLNWLQQRPGQSPRRLIYLVSELGSGVPDRFSGSGSGTDFTLKISRVEAEDVGVYYCWQGTHFPRTFGGGTKVEIKR

How the values were obtained:
human CD3ε/δ-His (human) = assay: ELISA, coated antigen
[1] = target: monkey CD3ε/δ-His (monkey); assay: ELISA, coated antigen

Binder	binding (human CD3ε/δ-His (human))	binding [1]
B1	binds	binds
B2	binds	binds
B3	binds	binds
B4	binds	–
B5	binds	binds
B6	binds	binds
B7	binds	binds

Results are given in words; binding and its absence hold for the method and conditions named. A result given as binding can be weak or reduced; the word gives no strength.
